Experimental data taken from publication PMC6465354.
Where a chain is given by its changes, count along the chain named. Names may count otherwise. Results are given in words; binding and its absence hold for the method and conditions named. Binding seen in cells or lysates may run through a third protein. Some entries that bind do so weakly or less than the wild type. Sequences can lack the tags named with a protein.

Molecular target: T1, Flag-Mint2 WT (rat) (UniProt O35431)
T1 sequence: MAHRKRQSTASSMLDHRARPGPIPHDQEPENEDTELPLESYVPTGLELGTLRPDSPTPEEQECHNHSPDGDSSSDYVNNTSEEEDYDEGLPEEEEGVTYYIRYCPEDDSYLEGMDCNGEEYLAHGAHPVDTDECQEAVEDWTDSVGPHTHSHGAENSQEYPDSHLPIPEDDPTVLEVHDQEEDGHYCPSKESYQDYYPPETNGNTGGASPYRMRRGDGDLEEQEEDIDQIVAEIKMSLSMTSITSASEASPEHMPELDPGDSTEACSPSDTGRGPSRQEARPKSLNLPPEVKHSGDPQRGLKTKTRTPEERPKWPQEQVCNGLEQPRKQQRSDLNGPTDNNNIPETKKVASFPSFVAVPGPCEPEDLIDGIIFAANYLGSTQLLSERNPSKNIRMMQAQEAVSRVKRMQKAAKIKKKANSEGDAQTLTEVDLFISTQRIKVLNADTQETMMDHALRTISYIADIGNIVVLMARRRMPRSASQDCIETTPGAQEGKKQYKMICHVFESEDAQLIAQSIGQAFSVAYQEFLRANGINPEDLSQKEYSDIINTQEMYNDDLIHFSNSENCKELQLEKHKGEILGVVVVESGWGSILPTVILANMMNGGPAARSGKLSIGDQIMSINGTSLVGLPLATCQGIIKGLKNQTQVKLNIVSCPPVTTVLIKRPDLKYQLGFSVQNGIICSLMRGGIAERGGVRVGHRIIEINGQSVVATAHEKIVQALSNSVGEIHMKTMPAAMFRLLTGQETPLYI
Test: co-IP; HEK293T co-transfected with Flag-Mint2 WT and GFP-Mint2 constructs; lysates 48 h after transfection; IP with Flag antibody, immunoblot for GFP; quantified relative to Mint2 WT

B1: GFP-tagged Mint2 wild type (rat) (protein, UniProt O35431 1-750)
chain: T1 sequence
binding: binds

B2: GFP-tagged Mint2 N723S (rat) (protein, UniProt O35431 1-750)
chain: T1 sequence with N723S
binding: binds
